{"sequences": {"note": "Chains of the proteins cited; added tags and fusions are not shown. Lines headed by an entry give the natural chain unless they say otherwise; changes in a name come on top.", "UniProt O00167": "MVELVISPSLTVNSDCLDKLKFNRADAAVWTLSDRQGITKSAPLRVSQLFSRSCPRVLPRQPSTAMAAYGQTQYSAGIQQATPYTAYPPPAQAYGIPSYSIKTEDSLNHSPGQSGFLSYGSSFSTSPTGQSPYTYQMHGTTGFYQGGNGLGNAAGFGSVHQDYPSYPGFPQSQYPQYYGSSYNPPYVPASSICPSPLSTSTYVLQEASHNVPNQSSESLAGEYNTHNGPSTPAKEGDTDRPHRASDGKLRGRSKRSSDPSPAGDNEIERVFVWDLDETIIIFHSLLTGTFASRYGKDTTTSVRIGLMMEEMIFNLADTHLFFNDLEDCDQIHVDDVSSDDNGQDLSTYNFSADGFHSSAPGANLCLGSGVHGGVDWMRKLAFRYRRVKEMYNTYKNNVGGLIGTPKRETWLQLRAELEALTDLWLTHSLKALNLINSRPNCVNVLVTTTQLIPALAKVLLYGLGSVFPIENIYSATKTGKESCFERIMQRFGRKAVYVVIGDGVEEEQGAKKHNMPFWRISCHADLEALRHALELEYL"}, "source": "PubChem BioAssay AID488837", "about": "(National Center for Advancing Translational Sciences (NCATS), 2010)", "note": "About 20 (0.006%) of roughly 330,000 compounds were called active. The inconclusive results got no clear call from the source; some entries with a clear call stand among them for comparison. The call rests on the fitted dose curve; in most records, active means well fitted inhibition curve with a large enough effect; inconclusive means small, poorly fitted or top-dose-only effect, or effect the other way; inactive means flat fitted curve, though single readings scatter. Where the call is inconclusive, the potency comes from a doubtful curve fit. On the % scale 0 is the no-effect control and ±100 the full control effect; potency means the concentration at half of the fitted maximal effect."}
{"molecular_target": "Protein phosphatase EYA2 (Homo sapiens) (UniProt O00167)", "experiment": "qHTS Assay for Inhibitors of the Phosphatase Activity of Eya2", "conditions": "recombinant Eya2, OMFP fluorescence dephosphorylation (OMFP is methylfluorescein phosphate); activity, negative = inhibition: at 76.9 µM (top of the series) unless noted", "procedure,_shortened": "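Eya2 (0.2 uM) preincubated 10 min at ambient with compound, then OMFP substrate added at 50 uM; 10 min reaction in 50 mM HEPES pH 7.5, 50 mM NaCl, 5 uM MgCl2, 0.05% BSA, 1 mM DTT. Fluorescence read at Ex 485/Em 525 nm.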"}
{"smiles": "CC(C)[C@H](NS(=O)(=O)c1ccccc1F)C(=O)NC1CCCCC1", "Potency": "inactive"}
{"smiles": "O=C(Cn1cncn1)N/N=C/c1ccncc1", "Potency": "inconclusive: 17.8 µM [inhibitor, single point]"}
{"smiles": "Cc1ccc(/C=N/n2c(C)nc3ccccc3c2=O)o1", "Potency": "inconclusive: 89.1 µM [inhibitor, single point]"}
{"smiles": "c1cncc(-c2nnc(-c3ccco3)o2)c1", "Potency": "inactive"}
{"smiles": "Nc1nc(-c2cccs2)c(-c2cccs2)s1", "Potency": "inconclusive: 112 µM [inhibitor, partial curve, poor fit]"}
{"smiles": "CC(C)Oc1ccc(C2CC(=O)N(c3cccc(Br)c3)C2=O)cc1", "note": "(centres undefined)", "Potency": "inconclusive: 89.1 µM [inhibitor, single point]"}
{"smiles": "CC(C)(C)OC(=O)CNC(=O)c1[nH]cnc1C(=O)N[C@@H](Cc1ccccc1)C(=O)OC(C)(C)C", "Potency": "inconclusive: 25.1 µM [inhibitor, single point]"}
{"smiles": "N#CC1=C(N)NC(SCc2ccc(F)cc2)=C(C#N)C12CCCCC2", "Potency": "inactive"}
{"smiles": "Cc1csc2c(N3CCN(C(=S)Nc4ccc(F)cc4F)CC3)ncnc12", "Potency": "inconclusive: 100 µM [inhibitor, single point]"}
{"smiles": "CN(C)N=Nc1ccc2nc[nH]c2c1", "Potency": "inconclusive: 178 µM [inhibitor, partial curve, poor fit]"}
{"smiles": "CC(=O)N1CCN(CC(=O)Nc2ccccc2Sc2ccc(Cl)cc2)CC1", "Potency": "inactive"}
{"smiles": "Cc1nn(C)cc1/C=N\\NC(=O)Cc1ccc([N+](=O)[O-])cc1", "Potency": "inactive"}
{"smiles": "O=C(c1ccoc1)N1CCCC(CO)(CCCc2ccccc2)C1", "note": "(centres undefined)", "Potency": "inconclusive: 112 µM [inhibitor, single point]"}
{"smiles": "CCOc1ccc2nc(N(CCN(C)C)C(=O)c3cc4ccccc4cc3OC)sc2c1", "Potency": "inconclusive: 20 µM [inhibitor, single point]"}
{"smiles": "O=C(N/N=C/C(Br)=C/c1ccccc1)C1CC1", "Potency": "inconclusive: 631 µM [inhibitor, partial curve, poor fit]"}
{"smiles": "CCN(C(=S)NCc1ccccc1)c1cccc2ccccc12", "Potency": "inconclusive: 100 µM [inhibitor, single point]"}
{"smiles": "O=C(Nc1ccc2c(c1)CN(Cc1ccccc1O)CC2)C1CCCO1", "note": "(centres undefined)", "Potency": "inconclusive: 794 µM [inhibitor, partial curve, poor fit]"}
{"smiles": "Cc1cccc(NC(=O)c2csnn2)n1", "Potency": "inconclusive: 100 µM [inhibitor, single point]"}
{"smiles": "COc1ccc(SCC(=O)Nc2ccc(N3CCN(C)CC3)c(F)c2)cc1", "Potency": "inactive"}
{"smiles": "Cc1nn(-c2ccccc2)c(C)c1/C=N/N1CCN(Cc2ccccc2)CC1", "Potency": "inactive"}
{"smiles": "CCOC(=O)c1ccc(NC(=O)CSc2nncn2-c2cccnc2)cc1", "Potency": "inconclusive: 20000 µM [inhibitor, partial curve, poor fit]"}
{"smiles": "CC(=O)c1ccc(N2CCN(C(=O)c3nn(Cc4ccccc4)c(=O)c4ccccc34)CC2)cc1", "Potency": "inconclusive: 224 µM [inhibitor, partial curve, poor fit]"}
{"smiles": "COc1ccccc1CC(=O)NC1CCN(Cc2ccccc2)CC1", "Potency": "inconclusive: 28.2 µM [inhibitor, partial curve]"}
{"smiles": "N#CCCCCN1CCCC1", "Potency": "inconclusive: 100 µM [inhibitor, partial curve, poor fit]"}
{"smiles": "O=C(NCCCn1ccnc1)/C(=C\\c1ccccc1F)NC(=O)c1ccccc1", "Potency": "inconclusive: 17.8 µM [inhibitor, single point]"}
{"smiles": "O=c1c2ccccc2c(C=Nc2cccc(O)c2)c(O)n1-c1ccc2c(c1)OCO2", "Potency": "inactive"}
{"smiles": "CCOC(=O)C1=C(C)N(C)C(C)=C(C(=O)OCC)C1c1cccnc1", "Potency": "inconclusive: 35.5 µM [inhibitor, single point]"}
{"smiles": "Cn1c(N)c(C(=O)Nc2cccc(Cl)c2)c(=O)n(C)c1=O", "Potency": "inconclusive: 89.1 µM [inhibitor, single point]"}
{"smiles": "Cc1nc(CN(C)C(=O)c2cc(COc3c(F)cccc3F)on2)cs1", "Potency": "inconclusive: 89.1 µM [inhibitor, single point]"}
{"smiles": "CN(C)C=NC(=O)c1cccn1-c1ncc(C(F)(F)F)cc1Cl", "Potency": "inconclusive: 126 µM [inhibitor, single point]"}
{"smiles": "COC(=O)c1ccc(COc2ccc(C)c(C)c2)o1", "Potency": "inactive"}
{"smiles": "COCCNc1c2c(nc3ccccc13)CCC2", "Potency": "inconclusive: 89.1 µM [inhibitor, single point]"}
{"smiles": "COc1ccc(Br)cc1C1CC(=O)C(C)C(c2cc(Br)ccc2OC)N1", "note": "(centres undefined)", "Potency": "inconclusive: 100 µM [inhibitor, single point]"}
{"smiles": "CCN1CCN(CCCN(Cc2ccco2)C(=S)Nc2ccccc2Cl)CC1", "Potency": "inconclusive: 355 µM [inhibitor, partial curve]"}
{"smiles": "Cc1cc(C)nc(NC(=S)Nc2ccc(F)cc2F)c1", "Potency": "inactive"}
{"smiles": "O=C(O)Cc1csc(-c2ccc(F)cc2)n1", "Potency": "inconclusive: 100 µM [inhibitor, single point]"}
{"smiles": "O=C(COC(=O)COc1cccc(Br)c1)Nc1ccc(F)cc1F", "Potency": "inactive"}
{"smiles": "FC(F)(F)c1ccccc1CN1CCC(Cc2ccccc2)CC1", "Potency": "inconclusive: 891 µM [inhibitor, single point]"}
{"smiles": "COc1ccccc1Cn1[nH]nnc1=S", "Potency": "inactive"}
{"smiles": "O=C(CN1C(=O)c2cccc3cccc1c23)NC1CCCC1", "Potency": "inconclusive: 15.8 µM [inhibitor, single point]"}
{"smiles": "COc1ccc(C(=O)NCCSCc2ccco2)cc1OC", "Potency": "inactive"}
{"smiles": "CCOCCCNC(=O)c1ccc2c(c1)N(CC)C(=O)c1ccccc1S2=O", "note": "(centres undefined)", "Potency": "inconclusive: 562 µM [inhibitor, partial curve, poor fit]"}
{"smiles": "CCOC(=O)c1c(N)sc(C(N)=O)c1C", "Potency": "inactive"}
{"smiles": "Cc1cc(Nc2ccc(N(C)C)cc2)n2ncnc2n1", "Potency": "inconclusive: 20 µM [inhibitor, single point]"}
{"smiles": "O=C1/C(=C/c2ccncc2)SC(=S)N1Cc1ccccc1", "Potency": "inconclusive: 100 µM [inhibitor, single point]"}
{"smiles": "CC(=O)OC1CCC2(C)C(=CCC3C2CCC2(C)C3CC3OC4(CCC(C)CN4)C(C)C32)C1", "note": "(centres undefined)", "Potency": "inconclusive: 22.4 µM [inhibitor, partial curve, poor fit]"}
{"smiles": "O=C(O)C1C2C=CC(C2)C1C(=O)NCc1cccc(Cl)c1", "note": "(centres undefined)", "Potency": "inconclusive: 63.1 µM [inhibitor, partial curve]"}
{"smiles": "c1ccc(CN2CCCC3(CCCN(Cc4nc(CC5CC5)no4)C3)C2)cc1", "note": "(centres undefined)", "Potency": "inactive"}
{"smiles": "CCCNC(=O)c1c(N)n(-c2cccc(OC)c2)c2nc3ccccc3nc12", "Potency": "inconclusive: 22.4 µM [inhibitor, partial curve]"}
{"smiles": "O=C(Nc1cccnc1)c1ccccc1Cl", "Potency": "inconclusive: 100 µM [inhibitor, single point]"}
{"smiles": "O=C(Cc1ccccc1)Nc1nnc(-c2cccc([N+](=O)[O-])c2)s1", "Potency": "inactive"}
{"smiles": "COc1ccc(C(=O)NCCNc2ccc([N+](=O)[O-])cn2)cc1", "Potency": "inconclusive: 178 µM [inhibitor, single point]"}
{"smiles": "CCOc1ccccc1N(CC(=O)NCC1CCCO1)C(=O)CCC(=O)Nc1nccs1", "note": "(centres undefined)", "Potency": "inconclusive: 178 µM [inhibitor, single point]"}
{"smiles": "O=C(CCc1ccccc1)Nc1ccc2c(c1)OCCO2", "Potency": "inactive"}
{"smiles": "Cc1ccc(OCCC(=O)N2CCN(c3ccc(O)cc3)CC2)cc1", "Potency": "inconclusive: 100 µM [inhibitor, single point]"}
{"smiles": "Cc1ccc(C(=O)NC2CCN(S(=O)(=O)c3ccc(F)cc3)CC2)cc1", "activity, negative = inhibition": "inconclusive: -34.1% [inhibitor]"}
{"smiles": "Cc1cccc(NC(=S)NNC(=O)c2ccccc2OC(F)F)c1", "Potency": "inactive"}
{"smiles": "O=C(O)CSc1cccc2cccnc12", "Potency": "inactive"}
{"smiles": "CC(C)(C)c1ccc(Cn2nnc3c(=O)[nH]c(C4CCCN(C(=O)Cc5cccs5)C4)nc32)cc1", "note": "(centres undefined)", "Potency": "inconclusive: 100 µM [inhibitor, single point]"}
{"smiles": "CN(CCC#N)C(=O)COC(=O)/C=C/c1cccs1", "Potency": "inconclusive: 50.1 µM [inhibitor, partial curve, poor fit]"}
{"smiles": "COc1cc(CN2CCN(Cc3cn(C)c4ccccc34)CC2CCO)cc(OC)c1", "note": "(centres undefined)", "Potency": "inconclusive: 398 µM [inhibitor, single point]"}
{"smiles": "CN(C)CC/C=C1/c2ccccc2Sc2ccc(Cl)cc21", "Potency": "inactive"}
{"smiles": "COC(=O)CCCC(=O)OC", "Potency": "inactive"}
{"smiles": "CSc1ccc(CN2CCCC(CO)(Cc3ccccc3)C2)cc1", "note": "(centres undefined)", "Potency": "inconclusive: 158 µM [inhibitor, single point]"}
{"smiles": "Nc1ccc(-c2c3ccc(=O)cc-3oc3cc(O)ccc23)c(C(=O)O)c1", "Potency": "inconclusive: 20 µM [activator, partial curve]"}
{"smiles": "CC(C)NC(=S)N/N=C/c1ccc(C(C)(C)C)cc1", "Potency": "inconclusive: 20 µM [inhibitor, partial curve, poor fit]"}
{"smiles": "CCc1nnc(NC(=O)c2ccc(-c3ccccc3F)o2)s1", "Potency": "inconclusive: 89.1 µM [inhibitor, single point]"}
{"smiles": "O=[N+]([O-])C1=CC=C2C(=NC3(CCCCC3)N2O)C1=NCCc1ccccc1", "Potency": "inactive"}
{"smiles": "COc1ccc(Cn2cnc([N+](=O)[O-])c2)cc1[N+](=O)[O-]", "Potency": "inconclusive: 22.4 µM [inhibitor, single point]"}
{"smiles": "O=C1CC(C(=O)O)S/C(=N\\N=C\\c2ccc(Br)cc2)N1", "note": "(centres undefined)", "Potency": "inconclusive: 17.8 µM [inhibitor, single point]"}
{"smiles": "CCOc1ccc(-n2cc(-c3ccccc3)c3c(=S)nc[nH]c32)cc1", "Potency": "inactive"}
{"smiles": "Nc1c(C(=O)Nc2ccccc2)sc2nc(-c3ccco3)ccc12", "Potency": "inactive"}
{"smiles": "Cn1c(SCC(=O)NC2CC2)nnc1-c1cccc(NC(=O)c2ccccc2F)c1", "Potency": "inconclusive: 25.1 µM [inhibitor, single point]"}
{"smiles": "O=C1CC(c2ccccc2)CC(O)=C1C=NC1CCCC1", "note": "(centres undefined)", "Potency": "inconclusive: 100 µM [inhibitor, single point]"}
